Measured values: PubChem BioAssay AID1347423 (Functional Genomics Laboratory (NCATS/FGL), 2020)
Screen size: about 52,000 sequences; about 210 (0.4%) were called active.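 How the source made its calls: active means gene whose silencing raises cell survival under the drug, median off-target-corrected z-score across its silencing RNAs 2 or more; inactive means the rest.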 Some of the results follow.

assay: Resistance to Poly (ADP-Ribose) Polymerase inhibitor: Gene Identification via Genome-wide siRNA Screen; conditions: mouse BRCA2 R2336H ES cells, olaparib, CellTiter-Glo viability; stronger effect = higher value
In short: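 Mouse BRCA2 R2336H ES cells were reverse-transfected with siRNA (20 nM final), treated at 48 h with 500 nM olaparib, and read by CellTiter-Glo after 72 h. Scores: MAD-based z per siRNA, median per gene, seed off-target correction.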

| Sequence | z-score |
| --- | --- |
| GCCAAAUGGGAAAUGGAAGTT against 4732497O03Rik | inactive: 1.54 |
| GGUUCACAGUCCAAGCUUCTT against Sytl3 | inactive: -0.547 |
| GCAUAUCGUUCAAGUUUACTT against Sorcs1 | inactive: 1.05 |
| GGGUAUUCUGUGUGUUACUTT against Hsd3b1 | inactive: 0.151 |
| GGGUGUUUACUAACUCUGGTT against Hdac3 | inactive: -1.68 |
| CCGUAAACGAAAUCAUAGUTT against Wdr20 | inactive: 0.401 |
| CGAUUUUCUACAGAAAUACTT against Smpd3 | inactive: 0.869 |
| GGGUUACUUAUUAUAUCGATT against Phr1 | inactive: 1.23 |
| CCAAAAAUUGUGGCUUUUGTT against Alas2 | inactive: -0.555 |
| CCGUAUUAUUGGAAGCGGCTT against 4933402O15Rik | inactive: 0.714 |
| GCAUAUCGUUUUAUGGAUGTT against Olfr1043 | inactive: 1.1 |
| CGGCAACCGGCACUAUAAATT against Pnoc | inactive: -0.00504 |
| GGAUGUCAAAGUCUUUAGUTT against Grb10 | inactive: 0.465 |
| GGAGAAGAUAGUCUGGGUCTT against Bcas3 | inactive: -0.231 |
| CCUCUCAGUGGUUGAAAUGTT against Wdr5 | inactive: -1.64 |
| GCAAUUGCUUUGCAUUUACTT against 9630005B12Rik | inactive: 0.836 |
| CGAUGUCAAUGUACUAAUUTT against Rhov | inactive: 0.359 |
| GGAGAUGGUUGGAUCAUUCTT against D10Ertd610e | inactive: 0.642 |
| GGAAUUAAGAUCACUCACUTT against Cel | inactive: -1 |
| GGAACGCAAAGAUGACCGUTT against Rnf20 | inactive: -0.474 |
| UACCCAUUGUCAAGUUGGATT against Grm4 | inactive: -1.77 |
| GCUUCACAUGAAGCAACCUTT against AA536717 | inactive: 0.198 |
| GCCGGCAGUAAAGAUUCAUTT against Cog2 | inactive: 1.17 |
| GCCUCCUAGAUGAUAUCAGTT against Socs7 | inactive: 2.27 |
| CGAGCCACACCAAUAGAAGTT against Csnk1g3 | inactive: -1.1 |
| GGAUCCACAGUCAUUCAGATT against 5730470L24Rik | inactive: 0.079 |
| GGGCUACUUAAUGAGUUACTT against Polg2 | inactive: 0.504 |

| Sequence | z-score |
| --- | --- |
| GGAUGUGUUCUAUUCUAUATT against Oprl1 | inactive: 2.59 |
| GGAGAUGGAAGCUAUUUUCTT against Hoxb1 | inactive: 0.266 |
| GGAAGUGCUCUGCUGUACATT against C230094A16Rik | inactive: -1.65 |
| GGAGCUUAUGUUCAAAAUATT against Nasp | inactive: 2.32 |
| GGUUGUGACUACACUAUGGTT against Zfp456 | inactive: 0.801 |
| CCGUGGUAAUGUGAACUAUTT against Cln6 | inactive: 1.82 |
| CCUGUGAAUACUUUCACUCTT against Bok | inactive: 1.25 |
| CCCUGCUAUCAGCAUCACATT against AW742319 | inactive: -1.14 |
| CGUUACACGUACUUCAAGGTT against Wnt3a | inactive: 1.89 |
| CGGUGUGAUGCGGAUUUUUTT against Cacna2d2 | inactive: 0.753 |
| GGUGACUUCAGAUGUGGCCTT against Bat8 | inactive: 0.364 |
| CCAAGUCCCUUUGUGGUGUTT against Peo1 | inactive: 0.13 |
| GCUUGGUGGGUUUGUUGAUTT against MGC74379 | inactive: 1.21 |
| GCACCUGUGGAGUUCUCUATT against Trp73 | inactive: -0.0382 |
| GCCCACAUCUGAUCUUAAATT against A130072J07 | inactive: 0.0502 |
| GACUAUGUGGUCUACUCGUTT against Drd4 | inactive: 0.0128 |
| CCAACGAACCUUAUUUCUUTT against Lman2 | inactive: 0.806 |
| GCUAUUCUUUUUCUGCUUUTT against Olfr893 | inactive: -0.244 |
| GCUGUUUUGAGGAGCCUUCTT against D12Ertd748e | inactive: -2.79 |
| GGCUGUGCAAGCAAAACCUTT against Mad1l1 | inactive: 0.271 |
| GGUGCAGAACAAUUCGGUUTT against Tnfsf4 | inactive: 0.597 |
| GGUGAAAACCUCAUAAAUGTT against A630033E08Rik | inactive: 1.15 |
| GCAACGGACCUUUAAAAAATT against Rkhd1 | inactive: 1.18 |
| CCACGUCUUUGAGGUACCUTT against 4930413P14Rik | inactive: -0.943 |
| GAUGGUCAUCCUUCCUUUATT against Olfr341 | inactive: 0.529 |
| CCGGAUUGAAGAGUUGUAUTT against 1110002N22Rik | inactive: 0.245 |
| GGUGAAUCGUGUUUCUGGATT against BC021381 | inactive: -1.11 |

6 entries drawn at random from the list so far:

| Sequence | z-score |
| --- | --- |
| GGAUGUGUUCUAUUCUAUATT against Oprl1 | inactive: 2.59 |
| GCCGGCAGUAAAGAUUCAUTT against Cog2 | inactive: 1.17 |
| CGAGCCACACCAAUAGAAGTT against Csnk1g3 | inactive: -1.1 |
| CCAACGAACCUUAUUUCUUTT against Lman2 | inactive: 0.806 |
| GGAGAAGAUAGUCUGGGUCTT against Bcas3 | inactive: -0.231 |
| CCACGUCUUUGAGGUACCUTT against 4930413P14Rik | inactive: -0.943 |

More results follow.

| Sequence | z-score |
| --- | --- |
| GGAAGAUACCAAAAUCUUATT against 1700083M11Rik | inactive: 0.295 |
| GCCCACAUCAGCUAUCGUUTT against Atf2 | inactive: -0.339 |
| GGAUUUUGAACCCAGUUAUTT against Siat9 | inactive: -1.37 |
| GGUUGGGCAAACCUGUCAATT against Olfr1121 | inactive: -1.23 |
| CGAUCUCAGAGGAUAAGUUTT against Nxf3 | inactive: -2.07 |
| GGAUGAAGAACCACUCAAATT against D1Ertd161e | inactive: -1.22 |
| GGAGAAUAAAACUUCCAGATT against Urod | inactive: 0.379 |
| GCUUGUGCCAAGCAUUCUUTT against Rdh1 | inactive: -0.327 |
| GACAAAGAGUCCCUGAACCTT against Emp3 | inactive: -0.458 |
| CCAAUGCCUGUUUAAUAAATT against LOC381813 | inactive: -0.0637 |
| GGGCAUUCUAUUAAACAUGTT against 2410018C17Rik | inactive: 2.49 |
| GCCCAUAUCUUCUUCACUGTT against Stxbp2 | inactive: -1.15 |
| GGAUGUGGUUCGAGUAUGGTT against Pou5f1 | inactive: -1.03 |
| GCAACUUUGUAGCUCCUUCTT against Srebf2 | inactive: 1.62 |
| GACAAUGCGUGCAACGAUATT against Grcc10 | inactive: 0.381 |
| CCUCAAUUAUACCAAGAUUTT against Mapre3 | inactive: 1.25 |
| GAAAAUAGAUAAAAGGACCTT against Defb6 | inactive: -0.0577 |
| GCGGAUUCAAAACCUUAGUTT against Drp2 | inactive: -0.525 |
| GGGCCUCCUGUAAACAUCCTT against D630039A03Rik | inactive: 1.29 |
| GGAAGACAUCAAGAUGUAATT against Rp1hl1 | inactive: -0.66 |
| GGACAUGGAGACUCUGAAGTT against Ptov1 | inactive: -0.39 |
| GGGACAAGGCAGAAAUUUUTT against Tcf15 | inactive: 2.19 |
| CCAUCCAUCUAUCUUCACCTT against Nanos2 | inactive: 1.39 |
| GCCUUACUUCGGAGUGCUATT against Olfr606 | inactive: -0.998 |
| GCUUAGGGUGUUGAAAGGCTT against AI854703 | inactive: -0.0689 |
| GGCUGUAGAAGGCUUAUUATT against 6030411K04Rik | inactive: -3.23 |
| GGAAAGUUGGACCUUCUGATT against Adamts6 | inactive: 0.712 |

| Sequence | z-score |
| --- | --- |
| CGGCCUGGUACCAUCUUAUTT against Antxr2 | inactive: 0.39 |
| GGAGCUGUAUGAGAUAGAGTT against Zfp566 | inactive: 0.261 |
| GGAAGUUGUAGUUUCGUGGTT against 6332401O19Rik | inactive: -0.0227 |
| GCACCAGGCCACAAUUAAUTT against Luzp2 | inactive: 0.294 |
| GCGGACGGAGGAACUAAUUTT against Arhgef19 | inactive: -0.969 |
| GCUAUUGAGAAACCACUUATT against Rasef | inactive: -1.11 |
| GGGAUACAGGACUAAACGATT against Fgf16 | inactive: 0.812 |
| GGAGUCCUCUCUUCACUUCTT against Serpinb9 | inactive: 0.162 |
| GGAUAUUGUGGUUUUUAGCTT against Pdc | inactive: -1.39 |
| GCUGAAUACAGUUGGUGCUTT against Whsc2 | inactive: 1.77 |
| GGGACAUGCCUGAAAAAUGTT against Txnl6 | inactive: -1.49 |
| GGAGAAAGGCAUCUUCAAATT against Spdef | inactive: 0.861 |
| GGACUGUGUGCAACUGAACTT against Camkk1 | inactive: -1.56 |
| CGGAAGACCCUGAGACUAUTT against Doc2g | inactive: -0.88 |
| CCACAAUAAUGAGCAGCAGTT against Olfr792 | inactive: 1.01 |
| GGGCUCAUUUUCACUGCUUTT against 0610007C21Rik | inactive: -0.483 |
| GGCUAGGUAGACCAUAGAGTT against BC034068 | inactive: 1.07 |
| CCCUCUUGCAGUCAGCUGATT against Rpl41 | inactive: -0.192 |
| GGUGGACAUGAGAAAGUGUTT against 2010316F05Rik | inactive: -0.763 |
| CGGAAGUCAAUUUUGAAAATT against Il31ra | inactive: 0.731 |
| GGAUUCUGCAUGUUUGUACTT against Cds2 | inactive: -1.75 |
| GGUACAUCUUAGAGGCCAATT against Epo | inactive: -0.831 |
| GGUGAAUGAGGACUCUGGGTT against 1700001E16Rik | inactive: 1.21 |
| GGCCUGGACAUCUCUUCUCTT against Taf7 | inactive: 0.867 |
